Results from PubChem BioAssay AID1487 (National Center for Advancing Translational Sciences (NCATS), 2009).
Some of the results follow. Shown are side measurements of this screen, not its main read-out; they come without a call. The list favours compounds with an active or inconclusive main result. Words in brackets tell the shape of the fitted curve; partial curves, single points and poor fits give uncertain potencies.

Assay: qHTS Assay for Modulators of Lamin A Splicing
Conditions: HeLa LMNA splicing GFP/RFP minigene ratio, 48 h
Outline: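 S3 HeLa stable clones carrying a lamin A-EGFP splicing minigene plus DsRed2 were seeded at 600 cells/well in Opti-MEM with 2% FBS, pin-dosed and incubated 48 h at 37°C. Acumen cytometry (488 nm) gave the GFP/RFP total-intensity ratio.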

[1] = measured here: GFP splicing reporter channel
[2] = measured here: RFP viability control channel

| SMILES | AC50 [1] | AC50 [2] |
| --- | --- | --- |
| CC(C)(C)c1ccc(C(=O)Nc2nnc3n2CCS3)cc1 | 0.1 µM [rising, full curve, poor fit] | – |
| COc1cc(/C=N/NC(=S)NCc2ccccc2)ccc1OCC#N | – | 3.55 µM [rising, partial curve, poor fit] |
| Cc1cc(C(=O)CSc2nc3ccccc3o2)c(C)n1CC1CCCO1 (centres undefined) | 5.62 µM [rising, full curve] | 3.98 µM [rising, full curve] |
| Cn1ncc2c(NNC(=O)Cc3ccccc3)ncnc21 | – | 0.0891 µM [falling, full curve, poor fit] |
| Cc1nc(N2CCOCC2)c2cc(-c3ccccc3)sc2n1 | – | 35.5 µM [rising, single point] |
| CCOC(=O)C(NC(C)=O)C(=O)Nc1ccc(C(C)C)cc1 (centres undefined) | 12.6 µM [falling, partial curve] | 8.91 µM [falling, partial curve] |
| O=C(NCCO)c1ccc(Cl)c(Cl)c1 | 25.1 µM [rising, single point] | – |
| CN1c2ccccc2-c2nc3ccccc3n2C1c1cccs1 (centres undefined) | 0.141 µM [falling, full curve, poor fit] | – |
| Cc1ccc(C2Oc3ccccc3C3=C2C(c2cccs2)n2ncnc2N3)cc1 (centres undefined) | 3.55 µM [falling, partial curve] | 3.55 µM [falling, partial curve, poor fit] |
| COc1ccc(Cn2ccnc2SCC(=O)NC2CCCC2)cc1 | 2.82 µM [rising, partial curve, poor fit] | – |
| COCCCNC(=O)c1ccc(Cn2c(=O)[nH]c3ccccc3c2=O)cc1 | – | 14.1 µM [rising, partial curve] |
| O=C(O)CC(C(=O)NCc1ccccc1)C1CCCO1 (centres undefined) | – | 0.178 µM [falling, full curve, poor fit] |
| Cc1ccccc1N1C(=O)c2ccccc2N2C(=O)c3ccccc3C12 (centres undefined) | 15.8 µM [rising, single point] | 20 µM [rising, single point] |
| CCOC(=O)c1c(C)oc2c1c(C=NCc1ccccn1)c(O)c1ccccc12 | 35.5 µM [falling, single point] | – |
| COc1ccc(C(=O)C(C)OC(=O)c2cccc(S(=O)(=O)Nc3cc(Cl)c(OC)cc3OC)c2)cc1 (centres undefined) | 3.98 µM [rising, full curve, poor fit] | 10 µM [rising, partial curve] |
| Cc1noc(C)c1CSc1ncnc2ccccc12 | 15.8 µM [falling, single point] | – |
| COc1ccc2c(c1)CC(C(=O)Nc1cccc(C)c1C)CO2 (centres undefined) | – | 0.282 µM [rising, full curve, poor fit] |
| CCCc1nc2scc(-c3ccc(C)cc3)c2c(=O)n1N | – | 35.5 µM [rising, single point] |
| O=C(O)CCCCCNS(=O)(=O)c1cccc2c1C(=O)c1ccccc1C2=O | – | 35.5 µM [rising, single point] |

| SMILES | AC50 [1] | AC50 [2] |
| --- | --- | --- |
| C=CCn1c(SCC(=O)Nc2cccnc2Cl)nnc1-c1ccccc1F | 11.2 µM [rising, single point] | 15.8 µM [rising, single point] |
| N#CC(Cc1ccc(OC(F)F)cc1)c1nc2ccccc2[nH]1 (centres undefined) | – | 0.501 µM [rising, full curve] |
| CSc1ccc(CCNC(=O)c2ccc3c(c2)nc2n3CCCCC2)cc1 | – | 2.51 µM [falling, full curve, poor fit] |
| C=CCNC(=S)NNC(=O)c1cc(O)ccc1O | – | 0.00316 µM [falling, full curve, poor fit] |
| COc1cc(/C=C(/C(=O)c2cccs2)c2nc3ccccc3[nH]2)cc(OC)c1O | 3.16 µM [falling, single point] | 31.6 µM [rising, single point] |
| COc1ccccc1N1CCN(C(=O)CCc2ccc(S(=O)(=O)NCC(C)C)cc2)CC1 | 10 µM [rising, partial curve] | 17.8 µM [rising, single point] |
| O=c1c(=O)n(-c2ccccc2)ccn1Cc1cccc(C(F)(F)F)c1 | 3.55 µM [rising, full curve, poor fit] | 1.78 µM [rising, full curve] |
| Cc1cc(/C=C(\C#N)C(=O)Nc2ccccc2)c(C)n1-c1ccc2c(c1)OCO2 | – | 5.62 µM [rising, full curve] |
| O=C(Nc1ccccc1C(F)(F)F)c1ccc(CN2CCC(Cc3ccccc3)CC2)cc1 | 11.2 µM [falling, single point] | 7.94 µM [falling, single point] |
| c1ccc(C2CCCN(Cc3nc(CC4CC4)no3)CC2)cc1 (centres undefined) | – | 35.5 µM [falling, single point] |
| CCN(CC)c1ccc(/C=N/NC(=O)c2cccc(S(=O)(=O)Nc3ccccc3OC)c2)c(O)c1 | 8.91 µM [rising, partial curve, poor fit] | 7.94 µM [rising, partial curve] |
| O=c1c(Cc2ccc(Cl)cc2)c(O)ccn1Cc1ccccc1 | – | 17.8 µM [rising, partial curve, poor fit] |
| O=C(CCN1C(=O)S/C(=C\c2cccs2)C1=O)NC1=NCCS1 | 35.5 µM [rising, single point] | – |
| O=C(c1ccccc1-c1ccccc1)N1CCN(c2ccccn2)CC1 | – | 3.55 µM [rising, partial curve, poor fit] |
| O=C(/C=C\c1ccc(-c2ccccc2)o1)c1ccccc1 | 12.6 µM [falling, partial curve] | 14.1 µM [falling, single point] |
| Cc1ccccc1NS(=O)(=O)c1cc(C(=O)Nc2ccccc2-c2ccccc2)ccc1Cl | – | 35.5 µM [rising, single point] |
| CCOC(=O)c1c(C)[nH]c(C(=O)COC(=O)C2CC(=O)N(Cc3ccccc3)C2)c1C (centres undefined) | – | 12.6 µM [falling, partial curve, poor fit] |
| OCC1OC(O)C(O)C(O)C1O (centres undefined) | 0.00355 µM [falling, full curve, poor fit] | – |

2 neighbouring compounds already listed:

| SMILES | AC50 [1] | AC50 [2] |
| --- | --- | --- |
| O=C(NCCO)c1ccc(Cl)c(Cl)c1 | 25.1 µM [rising, single point] | – |
| CN1c2ccccc2-c2nc3ccccc3n2C1c1cccs1 (centres undefined) | 0.141 µM [falling, full curve, poor fit] | – |
